Laboratory results as given in publication PMC3828182.
No constants are given. Whether binding was seen depends on the method and setting. In cells and extracts the contact can be indirect. Tags and fused reporters may be left off the sequences shown.

Amino acid sequences for entries named in this document (tags omitted).
UniProt Q9Y2L5: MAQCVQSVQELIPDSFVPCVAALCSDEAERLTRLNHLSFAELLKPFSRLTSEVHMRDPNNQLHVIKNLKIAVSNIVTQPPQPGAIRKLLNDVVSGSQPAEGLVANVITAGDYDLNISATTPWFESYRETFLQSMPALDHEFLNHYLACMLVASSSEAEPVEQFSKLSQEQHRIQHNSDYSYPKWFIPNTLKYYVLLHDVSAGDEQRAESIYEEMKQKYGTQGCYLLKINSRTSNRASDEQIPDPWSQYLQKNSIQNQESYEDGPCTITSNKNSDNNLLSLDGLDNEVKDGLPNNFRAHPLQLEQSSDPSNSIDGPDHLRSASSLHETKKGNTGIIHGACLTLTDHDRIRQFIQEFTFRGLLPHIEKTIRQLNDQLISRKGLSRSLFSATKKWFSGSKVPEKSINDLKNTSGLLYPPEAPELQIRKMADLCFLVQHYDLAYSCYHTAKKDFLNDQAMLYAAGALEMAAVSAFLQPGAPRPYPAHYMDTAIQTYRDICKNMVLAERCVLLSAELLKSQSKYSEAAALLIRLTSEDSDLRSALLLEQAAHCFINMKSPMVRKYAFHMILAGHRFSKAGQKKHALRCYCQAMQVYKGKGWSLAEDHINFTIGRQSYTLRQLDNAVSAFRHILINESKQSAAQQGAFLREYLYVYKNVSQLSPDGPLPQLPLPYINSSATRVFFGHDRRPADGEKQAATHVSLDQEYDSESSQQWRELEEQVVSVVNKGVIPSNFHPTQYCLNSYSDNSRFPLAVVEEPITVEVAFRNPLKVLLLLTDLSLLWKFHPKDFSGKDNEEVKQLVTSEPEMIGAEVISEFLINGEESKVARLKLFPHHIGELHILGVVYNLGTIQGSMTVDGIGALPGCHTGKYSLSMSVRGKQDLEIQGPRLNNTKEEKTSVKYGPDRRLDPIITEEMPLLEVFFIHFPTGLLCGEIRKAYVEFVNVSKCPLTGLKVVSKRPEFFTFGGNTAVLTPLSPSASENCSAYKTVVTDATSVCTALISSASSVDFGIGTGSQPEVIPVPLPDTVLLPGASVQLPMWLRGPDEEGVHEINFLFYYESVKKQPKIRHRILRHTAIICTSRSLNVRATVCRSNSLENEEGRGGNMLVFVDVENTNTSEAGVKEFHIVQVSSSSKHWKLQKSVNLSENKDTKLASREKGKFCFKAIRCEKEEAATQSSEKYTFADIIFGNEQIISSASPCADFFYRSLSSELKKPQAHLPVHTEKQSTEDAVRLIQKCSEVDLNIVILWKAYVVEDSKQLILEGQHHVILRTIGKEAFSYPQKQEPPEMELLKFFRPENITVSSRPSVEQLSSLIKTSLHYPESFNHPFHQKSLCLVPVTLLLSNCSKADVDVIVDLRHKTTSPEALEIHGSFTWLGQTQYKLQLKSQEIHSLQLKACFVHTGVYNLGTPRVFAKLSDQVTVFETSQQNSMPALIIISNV

Target: T1, FLAG-tagged HPV51 Nu strain L2 (51NuL2-FLAG) (human papillomavirus type 51, Nu strain) (UniProt P26539)
T1 sequence: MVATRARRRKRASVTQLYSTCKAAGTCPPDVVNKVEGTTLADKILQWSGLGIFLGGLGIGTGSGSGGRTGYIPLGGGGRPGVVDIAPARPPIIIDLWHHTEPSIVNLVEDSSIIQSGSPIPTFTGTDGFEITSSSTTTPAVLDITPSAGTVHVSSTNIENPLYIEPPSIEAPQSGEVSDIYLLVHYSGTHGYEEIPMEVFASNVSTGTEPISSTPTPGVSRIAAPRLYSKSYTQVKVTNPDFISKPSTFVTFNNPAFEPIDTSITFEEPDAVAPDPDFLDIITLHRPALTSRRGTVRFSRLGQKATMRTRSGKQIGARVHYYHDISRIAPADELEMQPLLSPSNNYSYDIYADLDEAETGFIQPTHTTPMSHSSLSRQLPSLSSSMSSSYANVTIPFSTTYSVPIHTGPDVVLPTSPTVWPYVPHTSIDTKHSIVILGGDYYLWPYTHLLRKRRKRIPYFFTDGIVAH
Experiment: co-IP; FLAG-tagged L2 precipitated from lysates of transfected HEK293FT cells with anti-FLAG M2 agarose (IP buffer: 20 mM Tris-HCl pH 8.0, 10% glycerol, 5 mM MgCl2, 0.1% Tween 20, 0.1 M KCl, 0.5 mM DTT; 1 h, room temperature), eluted with 3xFLAG peptide; Western blot with anti-P880/894 (TRAPPC8) or anti-TTC15 (TRAPPC12)

With “transport protein particle complex subunit 8 (TRAPPC8) (from UniProt Q9Y2L5 1-1435)” the binding was “no binding”.
